Hit rate of the full screen: of about 340,000 compounds, about 170 (0.05%) were called active. The shares of active, inactive and inconclusive entries below differ from those in the screen. Calls follow the shape of the dose curve; as a rule, active = well fitted inhibition curve with a large enough effect in the signal ratio, with a control signal flat (not every such curve was filed as active); inconclusive = small, poorly fitted or top-dose-only effect, or effect the other way, or a change in a side signal; inactive = flat fitted curve, though single readings scatter; the % refers to the signal ratio. A potency beside an inconclusive call is a rough fit, not a confirmed value.
Assay: qHTS Assay to Find Inhibitors of Chronic Active B-Cell Receptor Signaling;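 as to activity change, negative = inhibition: plate controls were basal doxycycline-induced cells for no effect and cells given 10 µM MG132 for full effect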
Conditions: ABC-DLBCL IkBa-CBG/CBR reporter, luminescence ratio (green luciferase fused to IkBa over red control in TMD8 lymphoma cells), 4 h; activity change, negative = inhibition: at 46.1 µM (top of the series)
Method in brief: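 Concentration-response series (up to 46 uM) were applied to TMD8 dual-reporter cells for 4 h at 37C with doxycycline. Green/red ratio, after filter-overlap correction, defined %Activity; red signal alone was normalised to basal cells and zero luminescence.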
Potency is read from the fitted curve at half-maximal effect.

Compound | Potency | activity change, negative = inhibition
O=C1/C(=C/c2ccccc2)SC(=S)N1CCCC(=O)N1CCCCC1CCO (stereo not drawn) | inconclusive: 7.94 µM [falling, partial curve] | –
CC(C)(CO)NC(=O)C(Cc1ccccc1)N1C(=O)c2ccccc2C1=O (stereo not drawn) | – | inconclusive: 4.06%
CCCc1cc(=O)n2[nH]cc(-c3ccc(Cl)cc3)c2n1 | inconclusive: 20 µM [falling, partial curve, poor fit] | –
Cc1ccc(N2CC(C(=O)Nc3ccccc3N3CCCC3)CC2=O)cc1 (stereo not drawn) | – | inactive: -3.37%
Cc1occc1C(=O)NNC(=O)c1nn(C)c(=O)c2ccccc12 | inconclusive: 17.8 µM [falling, partial curve] | –
Cc1cc(-c2ccc(/C=N/n3cnnc3)o2)ccc1Cl | – | inconclusive: -1.03%
COc1ccc(C2C(C(=O)N3CCN(c4ccccn4)CC3)CCC(=O)N2c2ccc(OC)cc2)cc1 (stereo not drawn) | – | inconclusive: -7.56%
O=C(Nc1nn[nH]n1)c1cccc([N+](=O)[O-])c1 | – | inactive: 0.778%
COc1cc(OC)cc(C(=O)Nc2ccc(C(=O)c3ccncc3)cc2)c1 | – | inconclusive: 1.65%
Cc1ccc2nc(-c3cccc(SC4CCCCC4)c3)c(NC3CCCCC3)n2c1 | – | inactive: 0.485%
CC1CCN(c2nnc(-c3cccs3)c3ccccc23)CC1 | – | inconclusive: 8.68%
CC1CCC(n2c(=S)[nH]c3ccccc3c2=O)CC1 (stereo not drawn) | inconclusive: 11.2 µM [falling, single point] | –
CCOc1ccc(NC(=O)Cc2ccccc2)cc1 | – | inconclusive: -10.6%
CCOC(=O)C1CCCN(S(=O)(=O)c2ccc3c4c(cccc24)C(=O)N3CC)C1 (stereo not drawn) | – | inactive: -1.41%
C/C(=N\NC(=O)c1ccc(Cl)c(Cl)c1)c1cccc(NC(=O)C(C)C)c1 | inconclusive: 10 µM [falling, partial curve, poor fit] | –
CCN(CC)c1ccc(C=Nc2ccc(N(C)C)cc2)c(O)c1 | inconclusive: 9.2 µM [falling, partial curve] | –
O=C(C1=C[C@@H](c2ccc(C(F)(F)F)cc2)C[C@@H](OCc2ccc(CO)cc2)O1)N1CCN(Cc2ccccc2)CC1 | – | inconclusive: -24.7%
O=C(/C=C/c1ccccc1Cl)NCCc1ccc(F)cc1 | – | inconclusive: -8.38%
Cc1ccc(NC(=O)c2ccc(Nc3c([N+](=O)[O-])cc([N+](=O)[O-])cc3[N+](=O)[O-])cc2)cc1 | – | inconclusive: 11.8%
C=CCN1C(=O)/C(=N/n2cnnc2)c2ccccc21 | – | inconclusive: -7.08%
CC(C)(C)N1C(=O)[C@H]2[C@@H](c3ccc(Br)cc3)N3C(=O)N(c4cccc(F)c4)C(=O)[C@@]3(Cc3ccccc3)[C@H]2C1=O | – | inactive: -1.56%
O=C(c1ccc(F)cc1)N1CCN(c2ccccn2)CC1 | – | inactive: 1.39%
Cc1ccc(N(Cc2ccc(C(=O)NN=C3CCN(C)CC3)cc2)S(C)(=O)=O)cc1C | – | inconclusive: -24.2%
Cc1c(/C=C/C(=O)c2ccc(C(C)C)cc2)cnn1C | – | inconclusive: 4.15%
CC(=O)Nc1ccc(-n2c(C)nc(=O)c(-c3ccccc3)c2C)cc1 | – | inconclusive: 2.82%
O=C(c1ccc(Cl)c(Cl)c1)c1cc(-c2ccccn2)c(N2CCOCC2)s1 | inconclusive: 10 µM [falling, partial curve] | –

Compound | Potency | activity change, negative = inhibition
COc1ccc(OCC2c3cc(OC)c(OC)cc3CCN2C(=O)c2c(F)cccc2F)cc1 (stereo not drawn) | – | inconclusive: 2.36%
COc1ccccc1NC(=O)CNc1ccc(F)c(Cl)c1 | inconclusive: 23.1 µM [falling, partial curve, poor fit] | –
Cc1ccc(C(=O)NCC(c2ccco2)S(=O)(=O)c2ccc(Cl)cc2)cc1C (stereo not drawn) | – | inactive: -3.74%
CCOc1ccccc1CN1CCNC(=O)C1CC(=O)N(C)Cc1cnccn1 (stereo not drawn) | – | inactive: 0.895%
CCOc1cc(C2C(C#N)=C(N)Oc3n[nH]c(-c4ccccc4)c32)ccc1O (stereo not drawn) | – | inconclusive: -17.4%
O=C(CCc1nc2ccccc2s1)OCC(=O)c1ccc[nH]1 | – | inconclusive: 8.4%
COc1ccc(-c2c(-c3ccc(O)cc3O)n[nH]c2C(F)(F)F)cc1 | – | inconclusive: 4.64%
CCOC(=O)C1CCN(CCC(=O)Nc2cccc(Cl)c2)CC1 | – | inconclusive: -2.99%
Cc1c(C(=O)Nc2ccc(S(=O)(=O)N(C)C3CCN(C)CC3)cc2)oc2ccccc12 | – | inconclusive: 1.36%
C/C(CC(=O)NCc1ccco1)=N\NC(=O)CC#N | – | inactive: 8.09%
CCOC(=O)c1cc(NC(=O)Cc2ccc(S(=O)(=O)N3CCOCC3)s2)cc(C(=O)OCC)c1 | – | inactive: -14.7%
Cc1ccc(-n2ncc3c(Nc4cccc(C(F)(F)F)c4)ncnc32)cc1C | – | inactive: 4.92%
CN(C)c1cc(-c2ccc([N+](=O)[O-])cc2)oc(=O)c1Cl | – | inconclusive: 10.4%
COc1cccc(CN2c3ccc(Br)cc3C(=O)CS2(=O)=O)c1 | inconclusive: 25.9 µM [falling, single point] | –
C=CCn1c(=O)c2ccccc2n2c(SCC(=O)Nc3cc(C)on3)nnc12 | – | inconclusive: 13.5%
N/C(=N\OC(=O)c1ccccc1F)c1cccc([N+](=O)[O-])c1 | – | inconclusive: 0.957%
CCOCCn1c(=O)c2c(nc3n2CCN3c2ccc(C)c(C)c2)n(C)c1=O | – | inactive: -0.271%
CCN1CCN(c2nc(Nc3cccc(C)c3)nc(N)c2[N+](=O)[O-])CC1 | – | inconclusive: -8.34%
O=S(=O)(NCc1csc(-c2cccs2)n1)c1cccs1 | inconclusive: 15.8 µM [rising, partial curve, poor fit] | –
CC(C)OCCCNC(=S)Nc1ccc(S(N)(=O)=O)cc1 | – | inconclusive: 0.44%
O=C(O)CCC(=O)c1ccc2c(c1)CCCC2 | inconclusive: 11.2 µM [falling, partial curve] | –
CCN(Cc1ccccc1)C(=O)Cn1c(=O)n(-c2ccc(Cl)c(Cl)c2)c(=O)c2c(C)c(C(=O)N(C)C)sc21 | – | inactive: -9.94%
Cc1ccccc1OCc1nc2ccccc2c(=O)n1/N=C/c1cn[nH]c1-c1ccc(Br)cc1 | – | inconclusive: 6.74%
COc1ccccc1CNC(=O)CSc1nc(=O)[nH]c2c1CCCC2 | inconclusive: 14.1 µM [falling, partial curve] | –
OCc1nc2nc(Cl)c(Cl)nc2[nH]1 | – | inconclusive: -1.93%
C/C(N)=C(/C#N)C(=O)CSc1nc2cc(Cl)ccc2c(=O)n1Cc1ccco1 | inconclusive: 22.4 µM [falling, partial curve, poor fit] | –

Ordered by formula weight (rising): some entries from above
Compound | Potency | activity change, negative = inhibition
OCc1nc2nc(Cl)c(Cl)nc2[nH]1 | – | inconclusive: -1.93%
O=C(CCc1nc2ccccc2s1)OCC(=O)c1ccc[nH]1 | – | inconclusive: 8.4%
CCOC(=O)C1CCN(CCC(=O)Nc2cccc(Cl)c2)CC1 | – | inconclusive: -2.99%
CCN1CCN(c2nc(Nc3cccc(C)c3)nc(N)c2[N+](=O)[O-])CC1 | – | inconclusive: -8.34%
CCN(Cc1ccccc1)C(=O)Cn1c(=O)n(-c2ccc(Cl)c(Cl)c2)c(=O)c2c(C)c(C(=O)N(C)C)sc21 | – | inactive: -9.94%

(further entries)

Compound | Potency | activity change, negative = inhibition
COc1cc(/C=C/C(=O)OCC(=O)NC(=O)NC(C)(C)C)ccc1OCC#N | – | inconclusive: -10.5%
COc1ccc2c(c1)sc1nc(-c3ccccc3)cn12 | – | inconclusive: 128% [cytotoxic]
c1cncc(-c2nc(NCc3ccc4c(c3)OCO4)c3ccccc3n2)c1 | inconclusive: 2.51 µM [falling, partial curve, poor fit] | –
O=[N+]([O-])c1ccc(C(O)C(CO)NC(=S)Nc2ccccc2)cc1 (stereo not drawn) | – | inactive: 4.95%
O=C(Nc1ccccc1)c1ccc(Nc2c([N+](=O)[O-])cc([N+](=O)[O-])c3ccccc23)cc1 | – | inconclusive: 1.7%
C=CCN(CC=C)C(=O)COC(=O)c1n[nH]c2ccccc12 | inconclusive: 35.5 µM [falling, single point] | –
CN1C(=O)C(O)(CC(=O)/C=C/c2ccco2)c2ccccc21 (stereo not drawn) | inconclusive: 31.6 µM [falling, partial curve, poor fit] | –
O=C1CCCC2=C1C(c1ccc(Cl)cc1)n1c(s/c(=C\c3ccc4ccncc4c3)c1=O)=N2 (stereo not drawn) | – | inactive: 0.0104%
CCOC(=O)c1c(-c2ccc(C)s2)csc1NC(=O)c1cccs1 | – | inconclusive: 12%
COc1ccc(N2CC(NC(=O)C(=O)c3c(C)[nH]c4ccccc34)CC2=O)cc1 (stereo not drawn) | – | inactive: 8.51%
O=C(NCCOc1ccccc1Cl)c1cc(F)c(F)cc1Cl | – | inconclusive: -2.39%
COc1ccc(Nc2cc(Nc3ccc(OC)cc3)ncn2)cc1 | – | inactive: -0.951%
CSc1ccccc1NC(=O)CN(C)C(C)C(=O)NC(=O)NC1CCCCC1 (stereo not drawn) | – | inconclusive: -18.1%
CN(C)c1ccc(/C=N/N=C2/NC(=O)/C(=C/c3ccc([N+](=O)[O-])cc3)S2)cc1 | inconclusive: 0.126 µM [falling, full curve, poor fit] | –
Cc1cc(C)cc(NC(=O)CCn2c(=O)c3cccn3c3ccccc32)c1 | – | inconclusive: -11.1%
COC(=O)[C@]1(Cc2ccccc2)N[C@H](c2ccc(-c3ccccc3)cc2)[C@@H]2C(=O)N(C)C(=O)[C@@H]21 | – | inconclusive: -12.2%
NS(=O)(=O)c1ccc(CCNC(=O)c2cccc3ccccc23)cc1 | – | inactive: 6.41%
COc1ccccc1CNc1nc2nc(C)c(Cl)c(=O)n2[nH]1 | inconclusive: 4.11 µM [falling, partial curve] | –
CCOC(=O)c1cccc(NC(=O)CCn2nnc3ccccc32)c1 | – | inconclusive: 1.93%
Cc1nc(SCC(=O)Nc2nc3ccccc3s2)c(C#N)c(C)c1C | – | inconclusive: -1.84%
COc1cccc(CC(Cc2nc3ccccc3[nH]2)c2nc3ccccc3[nH]2)c1 (stereo not drawn) | – | inconclusive: 19.1%
C=CCN1C(=O)/C(=C/C(=O)OC)S/C1=N\NC(=O)c1ccccc1 | – | inactive: 17.1%
COc1cc2c(cc1OC)C(c1cc3cc4c(cc3[nH]c1=O)OCO4)N(C(=O)C1CC1)CC2 (stereo not drawn) | inconclusive: 29.1 µM [falling, single point] | –
CSc1ccc(-c2cc(=O)c3ccccc3o2)cc1 | inconclusive: 29.1 µM [falling, single point] | –
CC(=O)Nc1ccc(OCc2nnc(-c3ccccc3)o2)cc1 | – | inconclusive: -2.62%
C[C@@H](NC(=O)c1nc[nH]c1C(=O)NCc1ccccc1)c1ccccc1 | – | inactive: -0.316%

Source: PubChem BioAssay AID493014 (National Center for Advancing Translational Sciences (NCATS), 2011)
